Some results were stated once for a whole list of compounds, not compound by compound.
Key:
[1] = test system: Uromyces appendiculatus; assay: Uromyces test (bean)/protective; assay type: in vivo; details: bean plants, protective spray, active compound concentration 100 ppm, evaluation 10 days after inoculation
[2] = test system: Phakopsora pachyrhizi; assay: Phakopsora test (soya bean)/protective; assay type: in vivo; details: soya bean plants, protective spray, active compound concentration 100 ppm, evaluation 11 days after inoculation

Compound | efficacy [1] | efficacy [2]
CC(Nc1c(-c2c(F)cc(F)cc2F)c(Cl)nc2ncnn12)C(F)(F)F (stereo not shown) [Example 1] | ≥ 70% | ≥ 80%
CC(Nc1c(-c2c(F)cc(F)cc2F)c(Cl)nc2ncnn12)C(C)(C)C (stereo not shown) [Example 2] | – | ≥ 80%
CC(C)C(C)Nc1c(-c2c(F)cc(F)cc2F)c(Cl)nc2ncnn12 (stereo not shown) [Example 3] | ≥ 70% | ≥ 80%
CC1CCN(c2c(-c3c(F)cc(F)cc3F)c(Cl)nc3ncnn23)CC1 [Example 156, 5-Chloro-7-(4-methylpiperidin-1-yl)-6-(2,4,6-trifluorophenyl)[1,2,4]triazolo[1,5-a]-pyrimidine] | ≥ 70% | ≥ 80%
CC1CNN(c2c(-c3c(F)cccc3Cl)c(Cl)nc3ncnn23)CC1C (stereo not shown) [Example 264] | ≥ 70% | –
CC1CCN(c2c(-c3ccccc3Cl)c(Cl)nc3ncnn23)NC1 (stereo not shown) [Example 271] | ≥ 70% | –
CC1CCN(c2c(-c3c(F)cc(F)cc3F)c(Cl)nc3ncnn23)NC1 (stereo not shown) [Example 274] | ≥ 70% | –

From patent US20090149455A1, “Use of Triazolopyrimidines for Controlling Plant Diseases on Legumes” (Bayer CropScience AG, priority 2005, published 2009)
